According to patent US8962271B2, “Fructosyl peptidyl oxidase” (Roche Diagnostics Operations, Inc., priority 2009, dated 2015):
The name of at least one read-out is uncertain.

Legend:
[1] = Oxidase activity, 4AA/TODB/POD system, substrate FV; assay type: biochemical; settings: purified enzyme; unit printed in b67 only
Method: (§1) The water-soluble fraction was examined for the oxidase activity using a POD/TODB/4A.A. method with three substrates: fructosyl valine (FV), fructosyl lysine (FK), and fructosyl valyl histidine (FVH).
(§2) The oxidase activity was assayed using 4A.A/TODB/POD with varying concentrations of substrates, FV, FK and FVH. The absorbance at 546 nm was monitored. Typical Michaelis-Menten curves were obtained with FV and FVH, but not with FK. […] A high VmaxKm^−1 value for FV (42.8 U mg^−1 mM^−1) indicates high specificity toward FV of this enzyme. It should be noted that VmaxKm^−1 value for FVH is also considerable (14.7 U mg^−1 mM^−1, 34% of VmaxKm^−1 for FV). This activity toward FVH of PnFPOX will be beneficial in the enzyme-based measurement of HbA1c. For comparison, the oxidase activity of known fructosyl peptidyl oxidases (FPOX-C and FPOX-E) was also included in the table (Hirokawa et al. ibid).
(§3) The oxidase activity of the fructosyl peptidyl oxidases PnFPOX and FPOX-C on a fructosyl hexapeptide (F6P: Fru-Val-His-Leu-Thr-Pro-Glu) was assayed without addition of Proteinase N. The enzyme activity was measured in a 4AA/TODB/POD system as described in Example 2, with the substrate concentration of 1 mM for FV and FVH and 5 mM for F6P.

[2] = Oxidase activity, 4AA/TODB/POD system, substrate FVH; assay type: biochemical; settings: purified enzyme; unit printed in b67 only
Method: as §1, §2, §3

B1: PnFPOX: fructosyl peptidyl oxidase derived from Phaeosphaeria nodorum, amino acid sequence SEQ ID NO:1, recombinant from E. coli (protein, listed as Phaeosphaeria nodorum)
chain: MAPSRANTSVIVVGGGGTIGSSTALHLVRSGYTPSNVTVLDAYPIPSSQSAGNDLNKIMGVSLRNPVDLQLALEARQMWNEDELFKKFFHNTGRLDCAHGEKDIADLKSGYQALVDAGLDATNEWLDSEDEILKRMPLLSRDQIKGWKAIFSKDGGWLAAAKAINAVGEYLRDQGVRFGFYGAGSFKAPLLAEGVCIGVETVDGTRYYADKVVLAAGAWSPTLVELHEQCVSKAWVYGHIQLTPEEAARYKNSPVVYNGDVGFFFEPNEHGVIKVCDEFPGFTRFKMHQPFGAKAPKRISVPRSHAKHPTDTIPDASDVSIRRAIATFMPQFKNKKMFNQAMCWCTDTADAALLICEHPEWKNFVLATGDSGHSFKLLPNIGKHVVELLEGTLADDLAHAWRWRPGSGDALKSRRSAPAKDLADMPGWNHDKPRANL
[1]
  Vmax/Km FV: 42.8 U mg^−1 mM^−1
[2]
  Vmax/Km FVH: 14.7 U mg^−1 mM^−1
